# Measurements reported in PubChem BioAssay AID1508597 (Cure First, 2020)
# Purpose: 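Genes whose silencing sensitises or protects ovarian cancer cells against rucaparib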 (primary screen)
# Cell system: human ovarian carcinoma lines grown from tumours: OCI-P5x (papillary serous) and OCI-C5x (clear cell)
# Reagents: siRNA pool against human genes, 1.25 pmol siRNA per well
# Time to read-out: 72 h or 96 h, depending on the cell culture
# Treatment: rucaparib 20 µM (about IC30) or vehicle, present until read-out
# Detection: 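ATP luminescence measured at 72 or 96 h according to the culture, then normalised and expressed as percent viability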
# Reading the numbers: viability, normalised: higher = more viable cells remaining
# Call rule: 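a well counts as a hit if its normalised viability is under 80 percent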
# Meaning of the calls: active = viability under 80%; inactive = viability 80% or more
# The deposit covers about 2,100 reagents; below is a part drawn at random. 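Calls flag viability under 80% in either arm, not effects specific to rucaparib; the reference for percent is not stated.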 Unmarked entries are inactive. Not stated in the record: the 100% reference.
"viability, normalised (%)",gene knocked down,PubChem SID,rucaparib or vehicle,cell line,technical replicate
51.5 (active),SMC1B (GeneID 27127),SID405527339,Rucaparib,OCI-C5x (clear cell),1
55.4 (active),SMC1B (GeneID 27127),SID405527339,Rucaparib,OCI-C5x (clear cell),2
43.1 (active),SMC1B (GeneID 27127),SID405527339,Rucaparib,OCI-C5x (clear cell),3
49.6 (active),SMC1B (GeneID 27127),SID405527339,Rucaparib,OCI-P5x (serous),1
46.3 (active),SMC1B (GeneID 27127),SID405527339,Rucaparib,OCI-P5x (serous),2
39.3 (active),SMC1B (GeneID 27127),SID405527339,Rucaparib,OCI-P5x (serous),3
38.2 (active),SMC1B (GeneID 27127),SID405527339,Vehicle,OCI-C5x (clear cell),1
47.2 (active),SMC1B (GeneID 27127),SID405527339,Vehicle,OCI-C5x (clear cell),2
44.4 (active),SMC1B (GeneID 27127),SID405527339,Vehicle,OCI-C5x (clear cell),3
49.5 (active),SMC1B (GeneID 27127),SID405527339,Vehicle,OCI-P5x (serous),1
49.1 (active),SMC1B (GeneID 27127),SID405527339,Vehicle,OCI-P5x (serous),2
62.1 (active),SMC1B (GeneID 27127),SID405527339,Vehicle,OCI-P5x (serous),3
55.5 (active),CLDN9 (GeneID 9080),SID405528142,Rucaparib,OCI-C5x (clear cell),1
46.2 (active),CLDN9 (GeneID 9080),SID405528142,Rucaparib,OCI-C5x (clear cell),2
50.3 (active),CLDN9 (GeneID 9080),SID405528142,Rucaparib,OCI-C5x (clear cell),3
66.3 (active),CLDN9 (GeneID 9080),SID405528142,Rucaparib,OCI-P5x (serous),1
74.4 (active),CLDN9 (GeneID 9080),SID405528142,Rucaparib,OCI-P5x (serous),2
73 (active),CLDN9 (GeneID 9080),SID405528142,Rucaparib,OCI-P5x (serous),3
50.8 (active),CLDN9 (GeneID 9080),SID405528142,Vehicle,OCI-C5x (clear cell),1
42.7 (active),CLDN9 (GeneID 9080),SID405528142,Vehicle,OCI-C5x (clear cell),2
55.4 (active),CLDN9 (GeneID 9080),SID405528142,Vehicle,OCI-C5x (clear cell),3
74.4 (active),CLDN9 (GeneID 9080),SID405528142,Vehicle,OCI-P5x (serous),1
69.7 (active),CLDN9 (GeneID 9080),SID405528142,Vehicle,OCI-P5x (serous),2
79.2 (active),CLDN9 (GeneID 9080),SID405528142,Vehicle,OCI-P5x (serous),3
63.9 (active),NTRK2 (GeneID 4915),SID405527494,Rucaparib,OCI-C5x (clear cell),1
74.9 (active),NTRK2 (GeneID 4915),SID405527494,Rucaparib,OCI-C5x (clear cell),2
61 (active),NTRK2 (GeneID 4915),SID405527494,Rucaparib,OCI-C5x (clear cell),3
97.5,NTRK2 (GeneID 4915),SID405527494,Rucaparib,OCI-P5x (serous),1
89.6,NTRK2 (GeneID 4915),SID405527494,Rucaparib,OCI-P5x (serous),2
91.1,NTRK2 (GeneID 4915),SID405527494,Rucaparib,OCI-P5x (serous),3
70.2 (active),NTRK2 (GeneID 4915),SID405527494,Vehicle,OCI-C5x (clear cell),1
40.5 (active),NTRK2 (GeneID 4915),SID405527494,Vehicle,OCI-C5x (clear cell),2
47.3 (active),NTRK2 (GeneID 4915),SID405527494,Vehicle,OCI-C5x (clear cell),3
99.5,NTRK2 (GeneID 4915),SID405527494,Vehicle,OCI-P5x (serous),1
74.1 (active),NTRK2 (GeneID 4915),SID405527494,Vehicle,OCI-P5x (serous),2
111,NTRK2 (GeneID 4915),SID405527494,Vehicle,OCI-P5x (serous),3

Continued, starting with the last 6 of the part before.
"viability, normalised (%)",gene knocked down,PubChem SID,rucaparib or vehicle,cell line,technical replicate
70.2 (active),NTRK2 (GeneID 4915),SID405527494,Vehicle,OCI-C5x (clear cell),1
40.5 (active),NTRK2 (GeneID 4915),SID405527494,Vehicle,OCI-C5x (clear cell),2
47.3 (active),NTRK2 (GeneID 4915),SID405527494,Vehicle,OCI-C5x (clear cell),3
99.5,NTRK2 (GeneID 4915),SID405527494,Vehicle,OCI-P5x (serous),1
74.1 (active),NTRK2 (GeneID 4915),SID405527494,Vehicle,OCI-P5x (serous),2
111,NTRK2 (GeneID 4915),SID405527494,Vehicle,OCI-P5x (serous),3
68.4 (active),PRKACA (GeneID 5566),SID405527796,Rucaparib,OCI-C5x (clear cell),1
66.4 (active),PRKACA (GeneID 5566),SID405527796,Rucaparib,OCI-C5x (clear cell),2
74.8 (active),PRKACA (GeneID 5566),SID405527796,Rucaparib,OCI-C5x (clear cell),3
75.6 (active),PRKACA (GeneID 5566),SID405527796,Rucaparib,OCI-P5x (serous),1
91.7,PRKACA (GeneID 5566),SID405527796,Rucaparib,OCI-P5x (serous),2
69.5 (active),PRKACA (GeneID 5566),SID405527796,Rucaparib,OCI-P5x (serous),3
66.5 (active),PRKACA (GeneID 5566),SID405527796,Vehicle,OCI-C5x (clear cell),1
49.4 (active),PRKACA (GeneID 5566),SID405527796,Vehicle,OCI-C5x (clear cell),2
61.2 (active),PRKACA (GeneID 5566),SID405527796,Vehicle,OCI-C5x (clear cell),3
71.3 (active),PRKACA (GeneID 5566),SID405527796,Vehicle,OCI-P5x (serous),1
64.2 (active),PRKACA (GeneID 5566),SID405527796,Vehicle,OCI-P5x (serous),2
57.4 (active),PRKACA (GeneID 5566),SID405527796,Vehicle,OCI-P5x (serous),3
68.8 (active),MMS22L (GeneID 253714),SID405528494,Rucaparib,OCI-C5x (clear cell),1
53.1 (active),MMS22L (GeneID 253714),SID405528494,Rucaparib,OCI-C5x (clear cell),2
60.4 (active),MMS22L (GeneID 253714),SID405528494,Rucaparib,OCI-C5x (clear cell),3
110,MMS22L (GeneID 253714),SID405528494,Rucaparib,OCI-P5x (serous),1
120,MMS22L (GeneID 253714),SID405528494,Rucaparib,OCI-P5x (serous),2
84.6,MMS22L (GeneID 253714),SID405528494,Rucaparib,OCI-P5x (serous),3
95.9,MMS22L (GeneID 253714),SID405528494,Vehicle,OCI-C5x (clear cell),1
58.6 (active),MMS22L (GeneID 253714),SID405528494,Vehicle,OCI-C5x (clear cell),2
51 (active),MMS22L (GeneID 253714),SID405528494,Vehicle,OCI-C5x (clear cell),3
113,MMS22L (GeneID 253714),SID405528494,Vehicle,OCI-P5x (serous),1
95.8,MMS22L (GeneID 253714),SID405528494,Vehicle,OCI-P5x (serous),2
92.3,MMS22L (GeneID 253714),SID405528494,Vehicle,OCI-P5x (serous),3
